Laboratory results reported in paper PMC12065020.
Results are given in words; binding and its absence hold for the method and conditions named. For some assays here: Binding seen in cells or lysates may run through a third protein. Some results given as binding are weak or reduced against the parent protein; the word gives no strength.

Amino acid sequences for entries named in this document (tags omitted).
UniProt P08670: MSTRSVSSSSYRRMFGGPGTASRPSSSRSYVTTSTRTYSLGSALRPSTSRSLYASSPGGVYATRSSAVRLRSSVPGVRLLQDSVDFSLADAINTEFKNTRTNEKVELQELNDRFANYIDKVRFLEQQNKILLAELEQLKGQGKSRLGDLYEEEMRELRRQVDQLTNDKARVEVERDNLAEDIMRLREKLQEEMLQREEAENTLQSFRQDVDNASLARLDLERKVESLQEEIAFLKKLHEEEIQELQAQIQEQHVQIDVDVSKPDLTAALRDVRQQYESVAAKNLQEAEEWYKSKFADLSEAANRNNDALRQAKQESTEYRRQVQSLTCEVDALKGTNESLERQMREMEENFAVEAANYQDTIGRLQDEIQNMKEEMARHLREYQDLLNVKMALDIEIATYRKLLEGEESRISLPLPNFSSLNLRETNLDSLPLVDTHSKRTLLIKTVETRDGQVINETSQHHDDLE
UniProt P07355: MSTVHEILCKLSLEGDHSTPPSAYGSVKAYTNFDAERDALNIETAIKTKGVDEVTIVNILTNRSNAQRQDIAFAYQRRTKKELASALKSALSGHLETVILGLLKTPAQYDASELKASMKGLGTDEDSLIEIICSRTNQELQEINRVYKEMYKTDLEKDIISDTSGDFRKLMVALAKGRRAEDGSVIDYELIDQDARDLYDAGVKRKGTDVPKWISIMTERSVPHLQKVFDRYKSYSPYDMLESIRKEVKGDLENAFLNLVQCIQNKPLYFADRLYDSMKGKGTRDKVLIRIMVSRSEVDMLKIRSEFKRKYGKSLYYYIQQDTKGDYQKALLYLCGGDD

How the values were obtained:
purified vimentin = purified vimentin (UniProt P08670); test: ELISA; plate coated with vimentin (or PBS blank), blocked with 5% NFDM; AnxA2 at 1.5 uM or 0 uM, 1 h at RT; detected with anti-His tag antibody, HRP secondary, TMB, absorbance at 450 nm; both purified
[1] = target: Annexin A2 (human (endogenous in hGF)) (UniProt P07355); test: co-IP; hGF lysates (IP lysis buffer: 25 mM Tris-HCl pH 7.4, 150 mM NaCl, 1 mM EDTA, 1% NP-40, 5% glycerol) immunoprecipitated with AnxA2 antibody or pre-immune serum, blotted for vimentin; cells with or without IL-1beta (10 ng/mL, 30 min)

binding (purified vimentin) | binding [1] | Substance
binds |  | Recombinant human AnxA2 (from UniProt P07355 1-339)
 | binds | Vimentin (from UniProt P08670 1-466)
